Where a name gives a salt, the structure may show the parent alone. The list shows a part of the results. The calls rarely recur for the same compound in another form.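 Kinases, fused to nanoluciferase, were expressed in K562 cells; luminescence was measured every 4 h from 2 to 18 h as percent of control (DMSO = 100%, positive control = 0%). A time point is decreased if signal falls significantly (2 sigma). Hits were called by the authors by a rule that is not shown; the count of time points alone does not decide it.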
target: CDK4 (UniProt P11802); test: kinase-Nluc reporter destabilization hit call (1 = scored as downregulated) (binary); higher = compound decreases kinase abundance; settings: 2 µM; K562; 2-18 h

Amino acid sequences for entries named in this document (tags omitted). A change or cut given only in a name is not applied to a line headed by its entry.
UniProt P11802: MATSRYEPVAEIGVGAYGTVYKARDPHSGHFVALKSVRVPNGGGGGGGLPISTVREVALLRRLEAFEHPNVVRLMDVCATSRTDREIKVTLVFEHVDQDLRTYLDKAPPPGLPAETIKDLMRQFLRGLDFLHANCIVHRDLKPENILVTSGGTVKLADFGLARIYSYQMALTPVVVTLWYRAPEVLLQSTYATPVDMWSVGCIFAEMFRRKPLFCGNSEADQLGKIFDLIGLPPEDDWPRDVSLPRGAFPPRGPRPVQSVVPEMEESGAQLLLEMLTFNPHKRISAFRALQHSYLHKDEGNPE

kinase-Nluc reporter destabilization hit call, inactive:
CCc1nc(C(N)=O)c(Nc2ccc(N3CCC(N4CCN(C)CC4)CC3)c(OC)c2)nc1NC1CCOCC1 [Gilteritinib] 0
CCc1nc(C(N)=O)c(Nc2ccc(N3CCC(N4CCN(C)CC4)CC3)c(OC)c2)nc1NC1CCOCC1 [Gilteritinib hemifumarate] 0
Cc1[nH]c(/C=C2\C(=O)Nc3ccc(F)cc32)c(C)c1C(=O)NCCN1CCCC1 [Toceranib (phosphate)] 0
Cc1[nH]c(/C=C2\C(=O)Nc3ccc(F)cc32)c(C)c1C(=O)NCCN1CCCC1 [Toceranib] 0

same assay, conditions: 2.5 µM; K562; 2-18 h

kinase-Nluc reporter destabilization hit call, inactive:
C=CC(=O)Nc1cc(Nc2nccc(-c3cn(C)c4ccccc34)n2)c(OC)cc1N(C)CCN(C)C [Osimertinib mesylate] 0
c1cc(-c2cnn3cc(-c4ccc(OCCN5CCCCC5)cc4)cnc23)ccn1 [Dorsomorphin] 0
CN(C)C/C=C/C(=O)Nc1cc2c(Nc3ccc(F)c(Cl)c3)ncnc2cc1O[C@H]1CCOC1 [Afatinib (dimaleate)] 0
C=CC(=O)Nc1cc(Nc2nccc(-c3cn(C)c4ccccc34)n2)c(OC)cc1N(C)CCN(C)C [Osimertinib] 0
CN(C)C(=O)c1cc2cnc(Nc3ccc(N4CCNCC4)cn3)nc2n1C1CCCC1 [Ribociclib hydrochloride] 0
COc1ccc(S(=O)(=O)Nc2ccccc2CN(C)C/C=C/c2ccc(Cl)cc2)cc1 [KN-92 (hydrochloride)] 0
COc1ccc(S(=O)(=O)Nc2ccccc2CN(C)C/C=C/c2ccc(Cl)cc2)cc1 [KN-92 (phosphate)] 0

same assay, conditions: 10 µM; K562; 2-18 h

kinase-Nluc reporter destabilization hit call, inactive:
CCS(=O)(=O)N1CCN(c2ccc(Nc3ncc(C(N)=O)c(NC4CC4)n3)cc2)CC1 [Cerdulatinib (hydrochloride)] 0
C[C@@H](N)c1ccc(C(=O)Nc2ccnc3[nH]ccc23)cc1 0
COc1ncc(F)cc1CNc1ccc(Cc2c[nH]c3ncc(C)cc23)c(F)n1 0
CCS(=O)(=O)N1CC(CC#N)(n2cc(-c3ncnc4[nH]ccc34)cn2)C1 [Baricitinib (phosphate)] 0
COC(=O)[C@H](CC(C)C)NC(=O)c1ccc(NC[C@@H](N)CS)cc1-c1cccc2ccccc12 [GGTI298 (Trifluoroacetate)] 0
COCCOc1cc(F)c2c(Nc3ccc(NC(=O)Cn4cc(C(C)C)nn4)cc3)ncnc2c1 [AZD3229 Tosylate] 0
CC(C)(C)n1nc(-c2cccc3ccccc23)c2c(N)ncnc21 [1-Naphthyl PP1] 0
N#CCNC(=O)c1ccc(-c2ccnc(Nc3ccc(N4CCOCC4)cc3)n2)cc1 [Momelotinib sulfate] 0
Cn1ncc(Cl)c1-c1cc(C(=O)N[C@H](CN)Cc2cccc(F)c2)sc1Cl [Afuresertib] 0
CNC(=O)c1ccc(Nc2ncc(C(F)(F)F)c(NCc3nccnc3N(C)S(C)(=O)=O)n2)cc1 [Defactinib] 0
O=C(O)c1ccc2c(c1)nc(Nc1cccc(Cl)c1)c1ccncc12 [Silmitasertib] 0
O=C(Nc1cnn2ccc(N3CCC[C@@H]3c3cc(F)ccc3F)nc12)N1CC[C@H](O)C1 [Larotrectinib] 0
COc1cc2nccc(Oc3ccc(NC(=O)C4(C(=O)Nc5ccc(F)cc5)CC4)cc3)c2cc1OC [Cabozantinib (S-malate)] 0
CN(C)C(=N)NC(=N)N [Metformin (hydrochloride)] 0
COc1ccnc(C[S+]([O-])c2nc3cc(-n4cccc4)ccc3[nH]2)c1C (configuration not stated) [Ilaprazole (sodium)] 0
C#Cc1cccc(Nc2ncnc3cc4c(cc23)OCCOCCOCCO4)c1 [Icotinib (Hydrochloride)] 0
CC(C)NC[C@@H](C(=O)N1CCN(c2ncnc3c2[C@H](C)C[C@H]3O)CC1)c1ccc(Cl)cc1 [Ipatasertib] 0
CC(=O)c1c(C)c2cnc(Nc3ccc(N4CCNCC4)cn3)nc2n(C2CCCC2)c1=O [Palbociclib (monohydrochloride)] 0
C#Cc1cccc(Nc2ncnc3cc(OCCOC)c(OCCOC)cc23)c1 [Erlotinib] 0
OCCn1cc(-c2cnc3nnn(Cc4ccc5ncccc5c4)c3n2)cn1 0
CCN(CC)CC(=O)Nc1c(C)cccc1C [Lidocaine] 0
CCS(=O)(=O)N1CCN(c2ccc(Nc3ncc(C(N)=O)c(NC4CC4)n3)cc2)CC1 [Cerdulatinib] 0
C#Cc1cccc(Nc2ncnc3cc(OCCOC)c(OCCOC)cc23)c1 [Erlotinib (Hydrochloride)] 0
O=C(c1ccc(F)c(F)c1Nc1ccc(I)cc1F)N1CC(O)([C@@H]2CCCCN2)C1 [Cobimetinib] 0
CC(C)(C)n1nc(-c2cccc3ccccc23)c2c(N)ncnc21 [1-Naphthyl PP1 (hydrochloride)] 0
CC(=O)c1c(C)c2cnc(Nc3ccc(N4CCNCC4)cn3)nc2n(C2CCCC2)c1=O [Palbociclib (isethionate)] 0

Not a retest: an excerpt of the list.
kinase-Nluc reporter destabilization hit call, inactive:
O=C(Nc1cnn2ccc(N3CCC[C@@H]3c3cc(F)ccc3F)nc12)N1CC[C@H](O)C1 [Larotrectinib] 0
COc1cc2nccc(Oc3ccc(NC(=O)C4(C(=O)Nc5ccc(F)cc5)CC4)cc3)c2cc1OC [Cabozantinib (S-malate)] 0
